For this test, the target named is Desmoplakin C-terminal region fragment spanning plakin repeat domains A and B (PRD-AB) (human) (UniProt P15924). In words: SEC; size exclusion chromatography of purified PRD-AB; the conditions of this run are not told (the purification used Superdex S200 in 25 mM Tris-Cl pH 8.0, 100 mM NaCl, 2 mM DTT); both purified.

Results are given in words; binding and its absence hold for the method and conditions named.

B1: Desmoplakin C-terminal region fragment spanning plakin repeat domains A and B (PRD-AB) (domain or fragment, UniProt P15924 1960-2448)
chain: TVDTSKLVFDGLRKKVTAMQLYECQLIDKTTLDKLLKGKKSVEEVASEIQPFLRGAGSIAGASASPKEKYSLVEAKRKKLISPESTVMLLEAQAATGGIIDPHRNEKLTVDSAIARDLIDFDDRQQIYAAEKAITGFDDPFSGKTVSVSEAIKKNLIDRETGMRLLEAQIASGGVVDPVNSVFLPKDVALARGLIDRDLYRSLNDPRDSQKNFVDPVTKKKVSYVQLKERCRIEPHTGLLLLSVQKRSMSFQGIRQPVTVTELVDSGILRPSTVNELESGQISYDEVGERIKDFLQGSSCIAGIYNETTKQKLGIYEAMKIGLVRPGTALELLEAQAATGFIVDPVSNLRLPVEEAYKRGLVGIEFKEKLLSAERAVTGYNDPETGNIISLFQAMNKELIEKGHGIRLLEAQIATGGIIDPKESHRLPVDIAYKRGYFNEELSEILSDPSDDTKGFFDPNTEENLTYLQLKERCIKDEETGLCLLPLKE
On to B1, for which the binding entry is reported as “no binding”.

These data come from publication PMC4726743.
